These are yes or no findings as the source states them, for the method shown. In cells and extracts the contact can be indirect. Some results given as binding are weak or reduced against the parent protein; the word gives no strength. For part of these data: Tags and fused reporters may be left off the sequences shown.
B1: IRF3, HA-tagged (protein, UniProt Q14653 1-427)
chain: MGTPKPRILPWLVSQLDLGQLEGVAWVNKSRTRFRIPWKHGLRQDAQQEDFGIFQAWAEATGAYVPGRDKPDLPTWKRNFRSALNRKEGLRLAEDRSKDPHDPHKIYEFVNSGVGDFSQPDTSPDTNGGGSTSDTQEDILDELLGNMVLAPLPDPGPPSLAVAPEPCPQPLRSPSLDNPTPFPNLGPSENPLKRLLVPGEEWEFEVTAFYRGRQVFQQTISCPEGLRLVGSEVGDRTLPGWPVTLPDPGMSLTDRGVMSYVRHVLSCLGGGLALWRAGQWLWAQRLGHCHTYWAVSEELLPNSGHGPDGEVPKDKEGGVFDLGPFIVDLITFTEGSGRSPRYALWFCVGESWPQDQPWTKRLVMVKVVPTCLRALVEMARVGGASSLENTVDLHISNSHPLSLTSDQYKAYLQDLVEGMDFQGPGES
B2: endogenous IRF1 (protein, UniProt P10914 1-325)
chain: MPITRMRMRPWLEMQINSNQIPGLIWINKEEMIFQIPWKHAAKHGWDINKDACLFRSWAIHTGRYKAGEKEPDPKTWKANFRCAMNSLPDIEEVKDQSRNKGSSAVRVYRMLPPLTKNQRKERKSKSSRDAKSKAKRKSCGDSSPDTFSDGLSSSTLPDDHSSYTVPGYMQDLEVEQALTPALSPCAVSSTLPDWHIPVEVVPDSTSDLYNFQVSPMPSTSEATTDEDEEGKLPEDIMKLLEQSEWQPTNVDGKGYLLNEPGVQPTSVYGDFSCKEEPEIDSPGGDIGLSLQRVFTDLKNMDATWLDSLLTPVRLPSIQAIPCAP

Experiments:
[1] = molecular target: T1, IRF1-R82A, FLAG-tagged (DNA-binding deficient mutant) (UniProt P10914); assay: co-IP; HEK293T cells transfected, collected 24 h post-transfection; NP-40 lysis buffer (150 mM NaCl, 50 mM Tris-HCl pH 7.4, 1% NP-40, 1 mM EDTA); anti-FLAG beads, 4 °C, 4 h; immunoblotting
T1 sequence: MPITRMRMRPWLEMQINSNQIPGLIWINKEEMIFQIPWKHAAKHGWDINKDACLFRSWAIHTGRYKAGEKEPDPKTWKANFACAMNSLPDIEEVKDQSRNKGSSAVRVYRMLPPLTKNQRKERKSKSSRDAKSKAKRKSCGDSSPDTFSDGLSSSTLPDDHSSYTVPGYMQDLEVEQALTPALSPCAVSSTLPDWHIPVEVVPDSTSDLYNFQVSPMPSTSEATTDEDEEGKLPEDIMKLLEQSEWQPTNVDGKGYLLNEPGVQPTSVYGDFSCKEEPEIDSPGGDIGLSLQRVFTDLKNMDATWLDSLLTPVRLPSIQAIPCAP

[2] = molecular target: T2, Interferon regulatory factor 1 (IRF1), FLAG-tagged, wild type (UniProt P10914); assay: as above
T2 sequence: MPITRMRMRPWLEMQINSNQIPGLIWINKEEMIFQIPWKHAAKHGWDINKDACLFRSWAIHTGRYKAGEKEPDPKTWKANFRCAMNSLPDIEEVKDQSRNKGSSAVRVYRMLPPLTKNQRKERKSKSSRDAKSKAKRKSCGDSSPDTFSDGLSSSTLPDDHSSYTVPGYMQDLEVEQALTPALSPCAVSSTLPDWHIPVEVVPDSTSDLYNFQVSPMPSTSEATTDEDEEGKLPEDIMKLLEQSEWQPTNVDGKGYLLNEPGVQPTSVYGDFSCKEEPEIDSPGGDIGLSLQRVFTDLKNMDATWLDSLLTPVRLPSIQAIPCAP

[3] = molecular target: T3, endogenous IRF3 (human (endogenous in HT1080)) (UniProt Q14653); assay: co-IP; endogenous proteins; HT1080 cells infected with HSV-1, harvested 8 h post-infection; lysates incubated overnight with rabbit IgG or rabbit anti-IRF3 polyclonal antibody, then Protein A/G agarose, 4 °C, 4 h; immunoblotting
T3 sequence: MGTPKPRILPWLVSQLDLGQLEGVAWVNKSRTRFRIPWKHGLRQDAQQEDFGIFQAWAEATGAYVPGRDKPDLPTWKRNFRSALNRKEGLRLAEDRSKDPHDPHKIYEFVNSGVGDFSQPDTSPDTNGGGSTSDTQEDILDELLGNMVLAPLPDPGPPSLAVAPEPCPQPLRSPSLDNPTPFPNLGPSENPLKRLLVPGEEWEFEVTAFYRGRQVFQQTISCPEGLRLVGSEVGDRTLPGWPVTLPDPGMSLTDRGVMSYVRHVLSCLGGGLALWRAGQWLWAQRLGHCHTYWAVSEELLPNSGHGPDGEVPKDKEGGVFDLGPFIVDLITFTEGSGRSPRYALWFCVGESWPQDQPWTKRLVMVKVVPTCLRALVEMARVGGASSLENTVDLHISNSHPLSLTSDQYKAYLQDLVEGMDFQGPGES

Binder | binding [1] | binding [2] | binding [3]
B1 | binds | binds | –
B2 | – | – | binds
